The values below come from the supplement of paper PMC12889115.

Some of the results follow. Values are raw readings; no control value is given beside them.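 Primary screen: polymyxin B was added at a level permeabilizing Salmonella outer membranes while sparing inner membranes. DMSO wells, both with and without polymyxin B, established maximum growth. Plate-to-plate variation meant each plate was ranked on its own, and the lowest-OD600 compounds were selected as hits.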

The assay relates to Salmonella enterica serovar Typhimurium SL1344. The assay can be described thus: bacterial growth OD600 after 18 h with compound and polymyxin B; higher = more bacterial growth (less inhibition). Particulars: 50 µM, Mueller-Hinton broth.

As to `CCO[C@H]1[C@H](NC(=O)CC)c2ccccc2C12CCN(C(=O)c1cc(OC)nc3ccccc13)CC2`, the “bacterial growth OD600” value (polymyxin B 0.75 µg/mL) worked out at 0.818.

For the compound `CCOC(=O)CCNC(=O)N(C)CC1CCCN(CCc2ccc(OC)cc2)C1` (stereo unspecified), the “bacterial growth OD600” value (polymyxin B 1 µg/mL) stood at 0.982.

Take `CN(Cc1nccn1C)c1nc2nonc2nc1NCc1cccs1`: the “bacterial growth OD600” value (polymyxin B 1 µg/mL) came to 0.921. With `CCOC(=O)C1(Cc2cccc(Cl)c2)CCCN(C(=O)c2cccc3nccnc23)C1` (stereo unspecified), where the note is “polymyxin B 1 µg/mL”, the “bacterial growth OD600” value came to 0.874. With `CC(C)C1CCN(CC2(O)CCCN(Cc3ccc(F)cc3)C2=O)CC1` (stereo unspecified), under “polymyxin B 1 µg/mL”, the “bacterial growth OD600” value was determined as 0.9. `Cc1nc(N2CCC(C(=O)NCC3CCN(C4CCCC4)CC3)CC2)nc2ccc(C(C)C)cc12`: the “bacterial growth OD600” value (polymyxin B 0.75 µg/mL) was 0.856. For the compound `CNc1cc(C(=O)NCc2cccnc2Oc2ccccc2OC)ccn1`, under “polymyxin B 0.75 µg/mL”, the “bacterial growth OD600” value stood at 0.945. On to `COc1cc(CC2(CCC(=O)N(C)Cc3nc4ccc(F)cc4[nH]3)CCC(=O)N2)ccc1F` (stereo unspecified), for which the “bacterial growth OD600” value (polymyxin B 0.75 µg/mL) amounted to 0.761. With `CCCCn1c(CN(C)Cc2ccccc2OC)cnc1S(=O)(=O)CC1CCC1`, the “bacterial growth OD600” value (polymyxin B 1 µg/mL) worked out at 0.911.

Turning to `COc1ccc(Cl)cc1NC(=O)CCC1CCCN(C(=O)c2csc(C)n2)C1` (stereo unspecified), where the note is “polymyxin B 1 µg/mL”, the “bacterial growth OD600” value came to 0.92. As to `CCOc1ccccc1CN1CCN(Cc2cccc(-n3cccn3)c2)CC1CCO` (stereo unspecified), the “bacterial growth OD600” value (polymyxin B 1 µg/mL) was found to be 0.833. With `COc1ccc(F)c(CN2CCC(C(Cc3ccc(F)cc3F)N(C)C(=O)c3ccco3)CC2)c1` (stereo unspecified), the “bacterial growth OD600” value (polymyxin B 0.75 µg/mL) is 0.66.

For `Cc1nc(N(C)C2CCCCC2)ncc1C(C)NC(=O)CCc1cccnc1` (stereo unspecified), the “bacterial growth OD600” value (polymyxin B 0.75 µg/mL) was determined as 0.925. As to `CCOc1ccc2nc(N3CCCN(Cc4cccc(C(C)=O)c4)CC3)nc(C)c2c1`, the “bacterial growth OD600” value (polymyxin B 0.75 µg/mL) was determined as 0.866. For `O=C(C1CCC1)N1CCCC(CCc2ccccc2)C1` (stereo unspecified), the “bacterial growth OD600” value (polymyxin B 0.75 µg/mL) was 0.505. As to `Cc1nc2ccccc2n1Cc1cc(C(=O)N(C)Cc2cccnc2)n[nH]1`, the “bacterial growth OD600” value (polymyxin B 1 µg/mL) came out at 0.984. Consider `Cc1cc(C)nc(CCNc2nncc(-c3ccccc3C)n2)n1`, for which the “bacterial growth OD600” value (polymyxin B 1 µg/mL) came out at 1.03. On to `O=C(c1ccoc1)N1CCc2[nH]nc(C(c3ccccc3)c3ccccc3)c2C1`, for which, for the setting “polymyxin B 0.75 µg/mL”, the “bacterial growth OD600” value was 0.548. Consider `O=C(c1cccc(Cl)c1F)N1CCCC(CO)(Cc2ccc(F)cc2)C1` (stereo unspecified), for which the “bacterial growth OD600” value (polymyxin B 1 µg/mL) was found to be 0.009. `CCCCN(C)C(=O)C1CCN(c2nc(C)c3ccccc3n2)CC1`: for the setting “polymyxin B 0.75 µg/mL”, the “bacterial growth OD600” value was found to be 0.884. Still for that read-out and setting: next, `O=C(NCC1CCCN(S(=O)(=O)c2ccc(F)cc2Cl)C1)c1ccco1` (stereo unspecified): 0.675. For the compound `COCC(=O)Nc1cc(C(=O)NCC2(c3ccccc3)CCCC2)c2c(c1)nc(-c1ccncc1)n2C`, for the setting “polymyxin B 0.75 µg/mL”, the “bacterial growth OD600” value is 0.871. `O=C(C1CCC1)N1CCC(n2c(-c3ccc4c(c3)OCO4)nc3cc(C(F)(F)F)ccc32)CC1`: the “bacterial growth OD600” value (polymyxin B 0.75 µg/mL) was found to be 0.559. Take `Cc1ccccc1CN1CCC(CN(CC2CCCO2)C(=O)c2snnc2C)CC1` (stereo unspecified): the “bacterial growth OD600” value (polymyxin B 1 µg/mL) amounted to 0.879. With `CCOC(=O)CCNC(=O)NC(C)c1cnn(-c2ccccn2)c1C` (stereo unspecified), the “bacterial growth OD600” value (polymyxin B 0.75 µg/mL) came out at 0.875.

As to `CCOC(=O)C1(Cc2ccccc2F)CCCN(Cc2cccc(C)n2)C1` (stereo unspecified), the “bacterial growth OD600” value (polymyxin B 0.75 µg/mL) worked out at 0.797. For `COc1ccc(CCCN2C(=O)O[C@@H]3CN(c4ncccc4Cl)C[C@@H]32)cc1`, the “bacterial growth OD600” value (polymyxin B 0.75 µg/mL) was found to be 0.184.

`CCN(Cc1ccccc1)C(=O)C1CCCN(C2CCN(C(=O)C3CC3)CC2)C1` (stereo unspecified): the “bacterial growth OD600” value (polymyxin B 1 µg/mL) worked out at 0.877.

`CCN1CCN(C(=O)CCc2nnc(Cc3ccc(-c4ccccc4)cc3)o2)[C@@H](C)C1=O`: the “bacterial growth OD600” value (polymyxin B 1 µg/mL) amounted to 0.94.

For the compound `COc1ccc(C(=O)NC2CC2)cc1OC1CCN(Cc2nc3ccccc3[nH]2)CC1`, the “bacterial growth OD600” value (polymyxin B 1 µg/mL) was 0.929. For the compound `COCC(C)Nc1ccc(-c2nc(COc3ccccc3)no2)cn1` (stereo unspecified), under “polymyxin B 1 µg/mL”, the “bacterial growth OD600” value worked out at 0.715.
